No constants are given. Whether binding was seen depends on the method and setting. Binding seen in cells or lysates may run through a third protein. Some binding calls cover weakened binding; strength is not graded here. For some of these results: Where a sequence is shown, tags or fusion partners need not be part of it.

Chains of the proteins cited; added tags and fusions are not shown.
UniProt Q8R4B8: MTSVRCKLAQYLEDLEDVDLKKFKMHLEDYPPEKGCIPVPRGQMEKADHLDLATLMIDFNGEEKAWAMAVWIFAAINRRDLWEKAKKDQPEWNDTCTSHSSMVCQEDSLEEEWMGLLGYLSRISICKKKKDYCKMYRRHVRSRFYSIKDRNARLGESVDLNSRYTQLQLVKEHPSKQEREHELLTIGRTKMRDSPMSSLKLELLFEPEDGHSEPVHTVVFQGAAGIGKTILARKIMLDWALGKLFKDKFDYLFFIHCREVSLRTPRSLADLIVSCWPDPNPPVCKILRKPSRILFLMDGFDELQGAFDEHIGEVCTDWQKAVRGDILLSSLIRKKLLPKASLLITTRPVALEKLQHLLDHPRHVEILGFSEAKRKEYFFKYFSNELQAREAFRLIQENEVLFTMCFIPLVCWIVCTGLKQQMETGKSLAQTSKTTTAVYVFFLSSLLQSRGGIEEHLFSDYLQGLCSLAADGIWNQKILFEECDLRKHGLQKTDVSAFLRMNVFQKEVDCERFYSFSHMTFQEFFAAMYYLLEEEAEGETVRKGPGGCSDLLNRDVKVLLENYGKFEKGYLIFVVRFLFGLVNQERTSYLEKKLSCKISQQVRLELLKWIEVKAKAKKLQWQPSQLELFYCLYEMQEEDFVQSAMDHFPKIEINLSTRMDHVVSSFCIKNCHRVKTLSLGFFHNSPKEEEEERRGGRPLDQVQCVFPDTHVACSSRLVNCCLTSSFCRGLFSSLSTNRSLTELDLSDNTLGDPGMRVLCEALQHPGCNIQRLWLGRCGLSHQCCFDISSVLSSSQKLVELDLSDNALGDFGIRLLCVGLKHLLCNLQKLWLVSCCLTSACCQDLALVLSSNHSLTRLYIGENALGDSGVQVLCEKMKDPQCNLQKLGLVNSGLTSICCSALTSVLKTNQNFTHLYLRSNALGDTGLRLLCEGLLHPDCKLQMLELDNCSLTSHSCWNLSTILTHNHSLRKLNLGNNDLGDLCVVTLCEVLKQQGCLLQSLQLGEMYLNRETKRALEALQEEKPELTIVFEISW

One test deals with Flag-tagged NLRP3 (UniProt Q8R4B8). The experiment in a line: co-IP; HEK293T cells co-transfected with Flag-tagged NLRP3 and V5-tagged Ufl1; 0.3% NP-40 lysis buffer; IP with Flag beads or with V5 antibody.
The next test has as its target Myc-tagged NLRP3 (UniProt Q8R4B8). The experiment in a line: co-IP; HEK293T cells co-transfected with Myc-tagged NLRP3 or NLRP3 mutants and Ufl1 or Flag-tagged Ufl1 truncations; 0.3% NP-40 lysis buffer; IP with anti-Flag or anti-c-Myc beads for 3 h.
Test [1] deals with T1, caspase-1 (co-immunoprecipitation of Figure S3C) (UniProt P29452).
T1 sequence: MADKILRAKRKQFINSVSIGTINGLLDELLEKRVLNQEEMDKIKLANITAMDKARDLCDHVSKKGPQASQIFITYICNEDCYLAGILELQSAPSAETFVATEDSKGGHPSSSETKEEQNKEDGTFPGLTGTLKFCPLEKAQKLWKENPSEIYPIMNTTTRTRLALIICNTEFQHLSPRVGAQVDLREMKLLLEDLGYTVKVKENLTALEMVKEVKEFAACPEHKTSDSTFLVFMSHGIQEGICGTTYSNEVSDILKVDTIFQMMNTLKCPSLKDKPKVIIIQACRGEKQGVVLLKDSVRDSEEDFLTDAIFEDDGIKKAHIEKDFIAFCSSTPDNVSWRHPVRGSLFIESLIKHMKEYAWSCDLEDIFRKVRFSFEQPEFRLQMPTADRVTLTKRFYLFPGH
Briefly: co-IP; co-immunoprecipitation of Ufl1 with inflammasome components (Figure S3C); cells and constructs not told in the text shown.

In test [2] the target is T2, ASC (co-immunoprecipitation of Figure S3C) (UniProt Q9EPB4).
T2 sequence: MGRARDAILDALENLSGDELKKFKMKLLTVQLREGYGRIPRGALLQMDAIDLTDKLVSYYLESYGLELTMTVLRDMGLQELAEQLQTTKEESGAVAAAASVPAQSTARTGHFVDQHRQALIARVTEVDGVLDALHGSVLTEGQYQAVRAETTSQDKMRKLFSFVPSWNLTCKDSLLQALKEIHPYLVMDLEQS
Described as above.

B1: V5-tagged Ufl1 (protein, UniProt Q8CCJ3 1-793)
chain: MADAWEEIRRLAADFQRAQFAESTQRLSERNCIEIVNKLISQKQLEVVHTLDGKEYITPAQISKEMRDELHVRGGRVNIVDLQQVINVDLTHIESRVSDIIKSEKHVQMVLGQLIDENYLDQLSEEVNDKLQESGQVTVSELCKAYDLPGDFLTQALTQRLGRIINGHLDLDNRGVIFTEAFVARHKARIRGLFSAITRPTPVNSLVSKYGFQEQLLYSVLEDLVSTGRLRGTVVGGRQDKAVFVPDIYSRTQSTWVDSFFRQNGYLEFDALSRLGIPDAVNYIKKRYKNTQLLFLKATCVGQGLVDQVEASVEEAISSGTWVDISPLLPSSLSVEDAAMLLQQVMRPFGKLASAIVFSDTVVVSEKFITDCTGLFSERMHQKAEKEMKNNPVHLITEEDLKQISILESVNTSKKDKKDERRKKATEGSGSVRGGGGGNAREYKIKKTKKKGRKDEDSDDESQSSHGGKKKPDITFMFQDEIEDCLRKHIQDAPEEFISELAEYLIKPLNKMYLEVVRSVFMSSTSASGTGRKRTIKDLQEEVSNLYNNIRLFEKGMKYFADDTQTALTKHLLKTVCTDITNLMFNFLASDFLMAVEEPAAITSDIRKKILSKLTEETKVALTKLHNSLNEKSIEDFLSCLDSATEACDIMVKKGDKKRERQILFQHRQALCEQLKVTEDPALILHLTAVLLFQLSTHSMLHAPGRCVPQIIAFLHSKIPEDQHTLLVKYQGLVVKQLVSQNKKTGQGEDPSSDELDKEQHDVTNATRKELQELSLSIKDLVLKSRKSSVTEE
Turning to B1, the binding entry in the test with Flag-tagged NLRP3 is given as “binds”.

B2: 3 × Flag-tagged Ufl1 (protein, UniProt Q8CCJ3 1-793)
chain: MADAWEEIRRLAADFQRAQFAESTQRLSERNCIEIVNKLISQKQLEVVHTLDGKEYITPAQISKEMRDELHVRGGRVNIVDLQQVINVDLTHIESRVSDIIKSEKHVQMVLGQLIDENYLDQLSEEVNDKLQESGQVTVSELCKAYDLPGDFLTQALTQRLGRIINGHLDLDNRGVIFTEAFVARHKARIRGLFSAITRPTPVNSLVSKYGFQEQLLYSVLEDLVSTGRLRGTVVGGRQDKAVFVPDIYSRTQSTWVDSFFRQNGYLEFDALSRLGIPDAVNYIKKRYKNTQLLFLKATCVGQGLVDQVEASVEEAISSGTWVDISPLLPSSLSVEDAAMLLQQVMRPFGKLASAIVFSDTVVVSEKFITDCTGLFSERMHQKAEKEMKNNPVHLITEEDLKQISILESVNTSKKDKKDERRKKATEGSGSVRGGGGGNAREYKIKKTKKKGRKDEDSDDESQSSHGGKKKPDITFMFQDEIEDCLRKHIQDAPEEFISELAEYLIKPLNKMYLEVVRSVFMSSTSASGTGRKRTIKDLQEEVSNLYNNIRLFEKGMKYFADDTQTALTKHLLKTVCTDITNLMFNFLASDFLMAVEEPAAITSDIRKKILSKLTEETKVALTKLHNSLNEKSIEDFLSCLDSATEACDIMVKKGDKKRERQILFQHRQALCEQLKVTEDPALILHLTAVLLFQLSTHSMLHAPGRCVPQIIAFLHSKIPEDQHTLLVKYQGLVVKQLVSQNKKTGQGEDPSSDELDKEQHDVTNATRKELQELSLSIKDLVLKSRKSSVTEE
B2: the binding entry with Myc-tagged NLRP3 is “binds”.

B3: Ufl1 (co-immunoprecipitation of Figure S3C) (protein, UniProt Q8CCJ3 1-793)
chain: MADAWEEIRRLAADFQRAQFAESTQRLSERNCIEIVNKLISQKQLEVVHTLDGKEYITPAQISKEMRDELHVRGGRVNIVDLQQVINVDLTHIESRVSDIIKSEKHVQMVLGQLIDENYLDQLSEEVNDKLQESGQVTVSELCKAYDLPGDFLTQALTQRLGRIINGHLDLDNRGVIFTEAFVARHKARIRGLFSAITRPTPVNSLVSKYGFQEQLLYSVLEDLVSTGRLRGTVVGGRQDKAVFVPDIYSRTQSTWVDSFFRQNGYLEFDALSRLGIPDAVNYIKKRYKNTQLLFLKATCVGQGLVDQVEASVEEAISSGTWVDISPLLPSSLSVEDAAMLLQQVMRPFGKLASAIVFSDTVVVSEKFITDCTGLFSERMHQKAEKEMKNNPVHLITEEDLKQISILESVNTSKKDKKDERRKKATEGSGSVRGGGGGNAREYKIKKTKKKGRKDEDSDDESQSSHGGKKKPDITFMFQDEIEDCLRKHIQDAPEEFISELAEYLIKPLNKMYLEVVRSVFMSSTSASGTGRKRTIKDLQEEVSNLYNNIRLFEKGMKYFADDTQTALTKHLLKTVCTDITNLMFNFLASDFLMAVEEPAAITSDIRKKILSKLTEETKVALTKLHNSLNEKSIEDFLSCLDSATEACDIMVKKGDKKRERQILFQHRQALCEQLKVTEDPALILHLTAVLLFQLSTHSMLHAPGRCVPQIIAFLHSKIPEDQHTLLVKYQGLVVKQLVSQNKKTGQGEDPSSDELDKEQHDVTNATRKELQELSLSIKDLVLKSRKSSVTEE
As for B3, the binding result in test [1] and in test [2] was “no binding” each time.

Values taken from article PMC12005806.
